Experimental findings from paper PMC7819943, “Rice protein-binding microarrays: a tool to detect cis-acting elements near promoter regions in rice” are described below.

This is one part of the list.

In the test the target is T1, OsSMF1 (Oryza sativa, UniProt Q6ZLB0 1-436).
T1 sequence: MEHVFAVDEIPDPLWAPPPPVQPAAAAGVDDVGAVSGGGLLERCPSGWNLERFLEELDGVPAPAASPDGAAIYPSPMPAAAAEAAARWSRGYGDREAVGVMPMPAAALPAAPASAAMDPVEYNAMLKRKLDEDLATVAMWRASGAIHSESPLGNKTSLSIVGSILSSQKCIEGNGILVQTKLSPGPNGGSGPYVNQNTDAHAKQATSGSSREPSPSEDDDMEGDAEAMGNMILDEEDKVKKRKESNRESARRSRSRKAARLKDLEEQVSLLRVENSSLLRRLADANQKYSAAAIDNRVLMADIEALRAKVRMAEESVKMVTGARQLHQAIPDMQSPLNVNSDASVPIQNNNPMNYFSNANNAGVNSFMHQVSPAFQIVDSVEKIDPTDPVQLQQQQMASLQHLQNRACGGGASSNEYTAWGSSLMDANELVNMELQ
Put plainly: protein-binding microarray (RPBM); PBS, 2% BSA, 51.3 ng/ul salmon testes DNA, 50 uM zinc acetate, 200 nM TF, 25 C, 1 h; high values mean tight binding. Particulars: protein: recombinant; tags: N-terminal polyhistidine and DsRed monomer fusion (pET32a); chain copies: 2; label: CyDye5-dUTP incorporated in the synthesized complementary strand; 3' TTTTT single-stranded linker to array surface; dsDNA, one strand shown. A digest of the protocol:
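A custom Agilent array was converted to double-stranded form by primer extension with Cy5-dUTP and blocked with 2% BSA. Protein at 200 nM in PBS with 2% BSA, salmon testes DNA and 50 µM zinc acetate was applied for 1 h at 25 °C, followed by washing. The proteins were polyhistidine–DsRed N-terminal fusions of transcription factors, expressed in E. coli BL21-CodonPlus and Ni–NTA-purified. The binding signal is per-feature fluorescence intensity (arbitrary units) from an Axon 4000B scanner.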
For the sequence “TTCACATATAAATTAATAAAGAAATGGTGGGGCCACGTGGCGGAGTCACCTAGTGCAG”, the binding signal is 6520 fluorescence intensity (a.u.).
The figure for “GAGAAGCATATGCTGCTTTGCTTTGTCAGCTTCCTTGGGTCGGAGTCACCTAGTGCAG” is 9360 fluorescence intensity (a.u.); for “GAATGCCTTTTCCACATGTACATGTGGGTACCTGCACTACCGGAGTCACCTAGTGCAG” it is 4650 fluorescence intensity (a.u.); for “AACCCCAGAAACCAGAGGCGGGCTGGTTGATCCATTCTTTCGGAGTCACCTAGTGCAG” it is 45000 fluorescence intensity (a.u.).
As for “GACCCACCTTTGGTGGGGTAGCTGGTGCCAGCGGAAGGGGCGGAGTCACCTAGTGCAG”, the figure is 3380 fluorescence intensity (a.u.).
“GTTTATTTGGGAGTAACTTATTCTACGTAAGCTTCTAATGCGGAGTCACCTAGTGCAG”: the binding signal is 3410 fluorescence intensity (a.u.).
As to “GGTTGCCATATTTGCTTGTTATGCCGATGTGGACAAGCTTCGGAGTCACCTAGTGCAG”, the binding signal was 5600 fluorescence intensity (a.u.).
As for “CGGCACTGACACGTGTGTACCTCCGCCGAGTCGGTCTCCCCGGAGTCACCTAGTGCAG”, the figure is 10300 fluorescence intensity (a.u.); as for “TCCCGGCGCATGACAGCCACGACGTCCCACATGAGCTGGTCGGAGTCACCTAGTGCAG”, 3870 fluorescence intensity (a.u.); as for “AAGGCGGCGGGTTCGTCCACCTCCTTGCGCCCACCCCTGACGGAGTCACCTAGTGCAG”, 4410 fluorescence intensity (a.u.).
As for “GACGACCAGTTAGCCATCGTCGGTCGACGACCAATCAGATCGGAGTCACCTAGTGCAG”, the figure is 4660 fluorescence intensity (a.u.); as for “CCTAATTCCTACTCGTACTACGTTTCTAAATCCAATGCATCGGAGTCACCTAGTGCAG”, 3410 fluorescence intensity (a.u.).
As for “TAGGGTTTTCTCGTCGCCGGGTCGGTGTCATCTCTCCTGCCGGAGTCACCTAGTGCAG”, the figure is 4110 fluorescence intensity (a.u.); as for “GTGGTGTTGGATAGTTTGATAGGCTGCTTCCCTACTAGGCCGGAGTCACCTAGTGCAG”, 3170 fluorescence intensity (a.u.).
Take “GCTAATGCTGCCGTTCGTGTCACATCAGCGACCGGATTCACGGAGTCACCTAGTGCAG”: the binding signal is 5840 fluorescence intensity (a.u.).
For the sequence “CGCATGCGCGCCAGCAGCTAGCAACCCCTTTAAATATGACCGGAGTCACCTAGTGCAG”, the binding signal was 16900 fluorescence intensity (a.u.).
Take “AGCAAACGGCCGTCTGCCACGTCACATTCGCCGCCCTCTGCGGAGTCACCTAGTGCAG”: the binding signal was 33700 fluorescence intensity (a.u.).
As for “GTTCGTTTTGATGTGTCAATGGATTGGTGGACCCGTGGATCGGAGTCACCTAGTGCAG”, the figure is 4640 fluorescence intensity (a.u.).
The figure for “GTGGAAGGAAGGCTCTCGAGTCTGGAAGCCGCATCGCGCTCGGAGTCACCTAGTGCAG” is 3330 fluorescence intensity (a.u.).
As for “TTTTCCGCCTCGTCTTTTCGCTTATGCTTATATTTATCAGCGGAGTCACCTAGTGCAG”, the figure is 3310 fluorescence intensity (a.u.).
“CACACCAACGTTTTCTTTGTGCAGACACATTCTTACATGTCGGAGTCACCTAGTGCAG”: the binding signal was 3360 fluorescence intensity (a.u.).
The figure for “CGCCGAGGGGAGGGGAGGGGAGGTTGCCATTGTTGTCCATCGGAGTCACCTAGTGCAG” is 5320 fluorescence intensity (a.u.); for “CACGCGTCAAACACCGGTTCCACGTGAGGAAGCTGAGCTCCGGAGTCACCTAGTGCAG” it is 5240 fluorescence intensity (a.u.).
